Measurements taken from patent US20190062395A1 (MEDICENNA THERAPEUTICS, published 2019).
These are yes or no findings as the source states them, for the method shown. Some entries that bind do so weakly or less than the wild type.

Columns and labels:
IL-13Rα2 = target: T1, IL-13Rα2; test: SPR, equilibrium; column KD (eq)
T1 sequence: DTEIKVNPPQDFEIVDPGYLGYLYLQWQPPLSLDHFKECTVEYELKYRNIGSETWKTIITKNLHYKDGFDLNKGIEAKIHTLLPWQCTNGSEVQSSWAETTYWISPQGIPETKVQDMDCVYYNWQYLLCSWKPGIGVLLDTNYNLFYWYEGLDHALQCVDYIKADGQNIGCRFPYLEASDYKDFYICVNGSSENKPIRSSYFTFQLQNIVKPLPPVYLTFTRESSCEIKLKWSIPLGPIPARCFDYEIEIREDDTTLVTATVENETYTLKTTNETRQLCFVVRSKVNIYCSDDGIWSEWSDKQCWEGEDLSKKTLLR

IL-13Rα1 = target: T2, IL-13Rα1; test: SPR, equilibrium; column KD (eq)
T2 sequence: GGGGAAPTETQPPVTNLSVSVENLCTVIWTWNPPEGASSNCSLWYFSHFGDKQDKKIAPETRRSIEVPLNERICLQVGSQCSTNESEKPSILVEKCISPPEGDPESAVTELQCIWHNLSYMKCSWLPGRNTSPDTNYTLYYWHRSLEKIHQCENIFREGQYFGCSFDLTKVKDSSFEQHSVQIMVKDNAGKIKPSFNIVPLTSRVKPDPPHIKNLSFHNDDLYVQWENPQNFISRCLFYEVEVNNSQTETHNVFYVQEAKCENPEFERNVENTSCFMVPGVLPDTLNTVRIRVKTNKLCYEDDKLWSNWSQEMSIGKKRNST

| Binder | binding (IL-13Rα2) | binding (IL-13Rα1) |
| --- | --- | --- |
| B4 (ligand) cytokine: PGPVPPSTALSELIEELINITQNQKAPLCNGSMVWSINLTAGMYCAALESLINVSGCSAIEKTQRMLSGFCPHKVSAGQFSSLHVKGSMIEVAQFVKDLLYHLRTLFREGQFN | binds |  |
| C3 (ligand) cytokine: PGPVPPSTAARELIEELVNITQNQKAPLCNGSMVWSINLTAGMYCAALESLINVSGCSAIEKTQRMLSGFCPHKVSAGQFSSLHVTGKRIEVAQFVKDLLNHLRALFKEGQFN |  | binds |
| C4 (ligand) cytokine: PGPVPPSTAVRELIEELVNITQNQKAPLCNGSMVWSINLTAGMYCAALESLINVSGCSAIEKTQRMLSGFCPHKVSAGQFSSLHVRDTRIEVAQFVKDLLNHLKELFTEGQFN |  | binds |
